Measured values published in the supplement of paper PMC8166895.
Where a name gives a salt, the structure may show the parent alone. This is one part of the list. Most values lie at the level of the controls, where differences are scatter.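 Melting temperature was read by differential scanning fluorimetry in a single-replicate pilot screen of a library of approved drugs and clinical or known-target compounds. Compounds raising the melting point by at least 2 °C were the top stabilizing hits, and negative shifts mean destabilization.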

These compounds were tested on SARS-CoV-2 main protease (Mpro, nsp5) (assay: thermal shift ΔTm of Mpro relative to plate average Tm; higher = stronger thermal stabilization of Mpro (binding)). Details: 10 µM; protein concentration 1 µM.

| Structure (SMILES) | thermal shift ΔTm of Mpro |
| --- | --- |
| CNc1ncnc2c1ncn2[C@@H]1O[C@H](CO)[C@@H](O)[C@H]1O [N6-methyladenosine (m6A)] | 0.0147 °C |
| Cc1ncc([N+](=O)[O-])n1C [Dimetridazole] | 0.0281 °C |
| CC(C)OC(=O)C(C(=O)OC(C)C)=C1SC=CS1 [Malotilate] | -0.0375 °C |
| C[C@@H](O)[C@H]1C(=O)N2C(C(=O)O)=C(SCCNC=N)C[C@H]12 [Imipenem] | 0.0316 °C |
| c1ccc2c(c1)CCCC2C1=NCCN1 (stereo unspecified) [Tetryzoline] | -0.206 °C |
| c1ccc2c(c1)CCCC2C1=NCCN1 (stereo unspecified) [Tetrahydrozoline HCl] | -0.0247 °C |
| CCOc1cc(N2CCC(O)CC2)ccc1Nc1ncc2c(n1)N(C1CCCC1)CCC(=O)N2C | 0.104 °C |
| OC[C@@H](O)[C@@H](O)[C@H](O)[C@H](O)CO [D-Mannitol] | 0.0318 °C |
| O=C1Nc2ccc(Cl)cc2/C1=C/c1cc(Br)c(O)c(Br)c1 | 0.265 °C |
| CN1C(=O)COc2c(C(=O)NC3CN4CCC3CC4)cc(Cl)cc21 (stereo unspecified) [Azasetron hydrochloride] | 0.168 °C |
| CCn1cc(C(=O)O)c(=O)c2cc(F)c(N3CCNCC3)nc21 [Enoxacin Sesquihydrate] | 0.0701 °C |
| CCn1cc(C(=O)O)c(=O)c2cc(F)c(N3CCNCC3)nc21 [Enoxacin] | 0.0663 °C |
| CC(=O)OCC(=O)NCCCOc1cccc(CN2CCCCC2)c1 [Roxatidine Acetate HCl] | 0.0133 °C |
| CCCCCCCCC(=O)N[C@H](CN1CCCC1)[C@H](O)c1ccc2c(c1)OCCO2 | 0.0372 °C |
| C[C@H](NCc1ccc(OCc2cccc(F)c2)cc1)C(N)=O [Safinamide Mesylate] | 0.346 °C |
| O=C(Oc1ccc([N+](=O)[O-])cc1)N1CCC(C(O)(c2ccc3c(c2)OCO3)c2ccc3c(c2)OCO3)CC1 | -0.0641 °C |
| O=C(OCC1=C[C@@H](O)[C@@H]2C=CO[C@@H](O[C@@H]3O[C@H](CO)[C@@H](O)[C@H](O)[C@H]3O)[C@H]12)c1ccc(O)cc1 [Agnuside] | 0.107 °C |
| CONC(=O)c1ccccc1Nc1cc(Nc2cc(C)nn2C(C)C)ncc1Cl | 0.143 °C |
| O=C(COc1c(Cl)cc(Cl)cc1Cl)N/N=C/c1ccc[nH]1 | 0.184 °C |
| O=C1NC(=O)C(c2ccccc2[N+](=O)[O-])=C1Nc1ccc(O)c(Cl)c1 | -0.379 °C |
| CO/N=C(\C(=O)N[C@@H]1C(=O)N2C(C(=O)O)=CCS[C@H]12)c1csc(N)n1 [Ceftizoxime] | -0.0823 °C |
| N#CSCSc1nc2ccccc2s1 [Benthiazole] | -1.25 °C |
| OC[C@H]1OC(O)[C@H](O)[C@@H](O)[C@@H]1O (stereo partly specified) [Dextrose] | 0.19 °C |
| CCCc1ncc(C[n+]2ccccc2C)c(N)n1 [Amprolium HCl] | -0.0231 °C |
| O=C1NC(=O)/C(=C/c2ccc3nccc(-c4ccncc4)c3c2)S1 | 0.394 °C |
| C/C(=C1/C(=O)Nc2ccc(NC(N)=O)cc21)c1ccc[nH]1 | -0.0769 °C |

Copied from the list:
CCn1cc(C(=O)O)c(=O)c2cc(F)c(N3CCNCC3)nc21 [Enoxacin] – thermal shift ΔTm of Mpro: 0.0663 °C
CO/N=C(\C(=O)N[C@@H]1C(=O)N2C(C(=O)O)=CCS[C@H]12)c1csc(N)n1 [Ceftizoxime] – thermal shift ΔTm of Mpro: -0.0823 °C

(continued)

| Structure (SMILES) | thermal shift ΔTm of Mpro |
| --- | --- |
| N#C/C(=C\c1ccc(O)c(O)c1)C(=O)Nc1ccccc1 | -0.345 °C |
| CC(C(=O)O)c1cccc(Oc2ccccc2)c1 (stereo unspecified) [Fenoprofen calcium dihydrate] | 0.0531 °C |
| CC(C(=O)O)c1cccc(Oc2ccccc2)c1 (stereo unspecified) [Fenoprofen Calcium] | 0.0378 °C |
| CC(C(=O)O)c1cccc(Oc2ccccc2)c1 (stereo unspecified) [Fenoprofen calcium hydrate] | -0.108 °C |
| O=C1OC(c2ccc(O)cc2)(c2ccc(O)cc2)c2ccccc21 [Phenolphthalein] | -0.07 °C |
| COCCOc1nc(-c2ccc(Cl)c(Cl)c2)n(-c2ccc(NC(=O)CCl)cc2)n1 [MI-2 (MALT1 inhibitor)] | -0.0947 °C |
| CNC[C@@H](O)c1ccc(O)c(O)c1 [L-Adrenaline] | -0.111 °C |
| Cc1ccc(N(CC2=NCCN2)c2cccc(O)c2)cc1 [Phentolamine Mesylate] | 0.13 °C |
| CC(C)Nc1cc(-c2c[nH]c(C(=O)N[C@H](CO)c3cccc(Cl)c3)c2)c(Cl)cn1 | 0.189 °C |
| CCc1ccc(CCOc2ccc(CC3SC(=O)NC3=O)cc2)nc1 (stereo unspecified) [Pioglitazone] | -0.0492 °C |
| CCc1ccc(CCOc2ccc(CC3SC(=O)NC3=O)cc2)nc1 (stereo unspecified) [Pioglitazone HCl] | 0.0188 °C |
| CCCSc1ccc2[nH]c(NC(=O)OC)nc2c1 [Albendazole] | 0.0585 °C |
| Cc1c(Cl)cccc1Nc1ccccc1C(=O)O [Tolfenamic Acid] | 0.136 °C |
| c1ccc(-c2nc(-c3ccc(-c4nc(-c5ccccc5)c(-c5ccccc5)[nH]4)cc3)[nH]c2-c2ccccc2)cc1 | 0.151 °C |
| CO[C@H]1/C=C/O[C@@]2(C)Oc3c(C)c(O)c4c(O)c(c(/C=N/N5CCN(C)CC5)c(O)c4c3C2=O)NC(=O)/C(C)=C\C=C\[C@H](C)[C@H](O)[C@@H](C)[C@@H](O)[C@@H](C)[C@H](OC(C)=O)[C@@H]1C [Rifampin] | 0.00997 °C |
| COc1cc(F)c(C(C)C)cc1-c1ccc(C(F)(F)F)cc1CN1C(=O)O[C@H](c2cc(C(F)(F)F)cc(C(F)(F)F)c2)[C@@H]1C [Anacetrapib (MK-0859)] | -0.0129 °C |
| O=C(O)CCc1c(C(=O)O)[nH]c2cc(Cl)cc(Cl)c12 | 0.171 °C |
| CC[C@H]1OC(=O)[C@H](C)[C@@H](O[C@H]2C[C@@](C)(OC)[C@@H](O)[C@H](C)O2)[C@H](C)[C@@H](O[C@@H]2O[C@H](C)C[C@H](N(C)C)[C@H]2O)[C@](C)(O)C[C@@H](C)C(=O)[C@H](C)[C@@H](O)[C@]1(C)O [Erythromycin] | 0.0354 °C |
| CC(C)(C)[C@]1(O)CC2OC(=O)CC23C(=O)OC2OC(=O)[C@H](O)C231 (stereo partly specified) [Bilobalide] | -0.0454 °C |
| CC(C)(Oc1ccc(CCNC(=O)c2ccc(Cl)cc2)cc1)C(=O)O [Bezafibrate] | -0.0145 °C |
| OCCN1CCN(CCCN2c3ccccc3Sc3ccc(C(F)(F)F)cc32)CC1 [Fluphenazine hydrochloride] | 0.105 °C |
| c1ccc(CC2=NCCN2)cc1 [Tolazoline HCl] | -0.121 °C |
| Cc1cnc2c(C(=O)NCCO)cn(Cc3ncnc(N(C)C)c3C)c2c1 | -0.0814 °C |
| O=C1c2ccccc2C(=O)C1c1ccccc1 [Phenindione] | 0.0766 °C |
| O=C(O)CCCc1c[nH]c2ccccc12 [3-Indolebutyric acid (IBA)] | -0.0502 °C |
